Measured values as given in PMC9889330.
Results are given in words; binding and its absence hold for the method and conditions named. In cells and extracts the contact can be indirect. Some binding calls cover weakened binding; strength is not graded here. Sequences can lack the tags named with a protein.

Protein sequences, listed by entry. Tags and fused reporters are not part of them.
UniProt Q12778: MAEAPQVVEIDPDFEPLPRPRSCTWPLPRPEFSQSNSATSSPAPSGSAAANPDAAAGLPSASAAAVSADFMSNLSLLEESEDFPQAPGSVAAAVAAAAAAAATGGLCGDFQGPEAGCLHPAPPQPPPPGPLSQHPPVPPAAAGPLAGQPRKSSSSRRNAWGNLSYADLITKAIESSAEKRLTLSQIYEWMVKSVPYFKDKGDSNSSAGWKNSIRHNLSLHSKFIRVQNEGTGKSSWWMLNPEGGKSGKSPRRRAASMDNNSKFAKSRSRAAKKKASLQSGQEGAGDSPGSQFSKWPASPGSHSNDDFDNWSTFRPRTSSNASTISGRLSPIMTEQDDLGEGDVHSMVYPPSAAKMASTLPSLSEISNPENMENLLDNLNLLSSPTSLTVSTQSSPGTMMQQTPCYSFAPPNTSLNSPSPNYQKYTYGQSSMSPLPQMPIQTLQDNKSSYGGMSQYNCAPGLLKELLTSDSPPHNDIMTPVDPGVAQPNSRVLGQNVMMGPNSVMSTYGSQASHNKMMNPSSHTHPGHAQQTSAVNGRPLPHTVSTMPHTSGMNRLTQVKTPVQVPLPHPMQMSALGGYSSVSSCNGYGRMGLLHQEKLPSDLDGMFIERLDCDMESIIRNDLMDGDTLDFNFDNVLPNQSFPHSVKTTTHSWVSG

Target: T1, serum/glucocorticoid regulated kinase 2 (SGK2) (UniProt Q9HBY8)
T1 sequence: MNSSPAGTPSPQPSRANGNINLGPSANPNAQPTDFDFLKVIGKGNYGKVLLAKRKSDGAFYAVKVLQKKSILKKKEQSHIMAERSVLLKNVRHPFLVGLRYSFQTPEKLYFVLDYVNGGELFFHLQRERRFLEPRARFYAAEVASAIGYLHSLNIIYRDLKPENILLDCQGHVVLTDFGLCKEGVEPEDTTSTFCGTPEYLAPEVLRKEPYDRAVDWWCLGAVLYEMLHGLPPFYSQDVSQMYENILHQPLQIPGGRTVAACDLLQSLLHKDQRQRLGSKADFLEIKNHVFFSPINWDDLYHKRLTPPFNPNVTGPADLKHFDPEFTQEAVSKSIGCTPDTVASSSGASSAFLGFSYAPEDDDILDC
Assay: co-IP; lysates of PC3 and DU145 cells with SGK2 overexpression; 5 ug antibody (anti-SGK2 or anti-FOXO1) and 500 ug protein, Protein A + G magnetic beads overnight at 4 °C, washed with Tris-buffered saline; anti-IgG as negative control; western blot

forkhead box O1 (FOXO1) (from UniProt Q12778 1-655)
binding: binds
